From PubChem BioAssay AID588456 (National Center for Advancing Translational Sciences (NCATS), 2011)
Shown are results outside the selection of hits, which stands elsewhere. Calls of active or inactive are those of the source. Calls come from the whole dose curve; as a rule, active = well fitted inhibition curve with a large enough effect; inconclusive = small, poorly fitted or top-dose-only effect; inactive = no such curve, though single readings can be large or run the other way.
% is set by controls: 0 for no effect and ±100 for the full control effect.
Note: nearly all actives have a fitted effect of over 50% in size.

Chains of the proteins cited; added tags and fusions are not shown.
UniProt O89049, whole entry, looked up: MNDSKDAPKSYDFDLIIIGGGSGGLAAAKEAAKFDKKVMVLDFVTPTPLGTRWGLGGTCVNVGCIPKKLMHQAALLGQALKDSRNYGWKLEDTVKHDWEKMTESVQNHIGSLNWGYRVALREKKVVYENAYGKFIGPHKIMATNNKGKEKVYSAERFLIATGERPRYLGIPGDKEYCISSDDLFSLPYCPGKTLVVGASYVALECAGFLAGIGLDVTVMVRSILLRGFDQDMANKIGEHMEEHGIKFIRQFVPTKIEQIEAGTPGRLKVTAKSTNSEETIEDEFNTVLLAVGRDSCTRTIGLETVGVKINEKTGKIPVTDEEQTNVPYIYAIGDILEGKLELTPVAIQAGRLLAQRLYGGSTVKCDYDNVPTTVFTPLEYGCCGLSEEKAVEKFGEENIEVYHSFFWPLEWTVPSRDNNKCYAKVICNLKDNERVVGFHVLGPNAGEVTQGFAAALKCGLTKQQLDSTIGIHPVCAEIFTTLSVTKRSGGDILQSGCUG

Each compound was assayed against Thioredoxin reductase 1, cytoplasmic (Rattus norvegicus) (UniProt O89049) (assay: qHTS Assay for Substrates of Mammalian Selenoprotein Thioredoxin Reductase 1 (TrxR1): qHTS). Conditions: purified TrxR1 substrate turnover, NADPH consumption readout; at 114 µM (top of the series).
Excerpt: The selenoprotein thioredoxin reductase (TrxR; EC 1.8.1.9) is a FAD containing homodimeric pyridine nucleotide-disulfide oxidoreductase with many cellular roles. Together with NADPH and its prime substrate thioredoxin (Trx), the enzyme forms the core of the Trx system. The mammalian Trx system exerts a wide spectrum of functions including redox regulation, antioxidant defense, regulation of transcription factors as well as support of cell growth and replication. Many of these functions involve the reduction of Trx, which may subsequently reduce a number of different substrates including ribonucleotide reductase, peroxiredoxins or NFkB. […]
This BioAssay is a validation of an NADPH fluorescence-based, dual-purpose qHTS rTrxR1 assay designed to find potential inhibitors and substrates of rTrxR1. […]
Assay protocol: 2 uL of reagents (buffer in column 4 as negative control and 90 nM rTrxR1 in columns 1-3 and 5-48) were dispensed into Greiner black solid-bottom 1,536-well assay plates, followed by 1 uL of NADPH (400 uM final concentration) to each well. […] The plate was immediately transferred to a ViewLux high-throughput CCD imager (PerkinElmer), wherein kinetic measurements of NADPH fluorescence (Ex 340 nm, Em 450 nm) were acquired (8 minute kinetic read, see Table 1). […]
`CN1[C@@H]2CC[C@H]1CC(OC(=O)C(O)c1ccccc1)C2` (some centres not stated) was tested, and the activity change, negative = substrate turnover was inactive: 4.32%.
`O=c1ccc2ccc(OCc3ccccc3)cc2o1` was tested, and the activity change, negative = substrate turnover was inactive: 42.2%.
